We go through one substance from doi:10.1101/2020.11.17.385245.

The target in this assay is T1, endogenous Fe65 (A549 cells) (human (endogenous in A549)) (UniProt O00213).
T1 sequence: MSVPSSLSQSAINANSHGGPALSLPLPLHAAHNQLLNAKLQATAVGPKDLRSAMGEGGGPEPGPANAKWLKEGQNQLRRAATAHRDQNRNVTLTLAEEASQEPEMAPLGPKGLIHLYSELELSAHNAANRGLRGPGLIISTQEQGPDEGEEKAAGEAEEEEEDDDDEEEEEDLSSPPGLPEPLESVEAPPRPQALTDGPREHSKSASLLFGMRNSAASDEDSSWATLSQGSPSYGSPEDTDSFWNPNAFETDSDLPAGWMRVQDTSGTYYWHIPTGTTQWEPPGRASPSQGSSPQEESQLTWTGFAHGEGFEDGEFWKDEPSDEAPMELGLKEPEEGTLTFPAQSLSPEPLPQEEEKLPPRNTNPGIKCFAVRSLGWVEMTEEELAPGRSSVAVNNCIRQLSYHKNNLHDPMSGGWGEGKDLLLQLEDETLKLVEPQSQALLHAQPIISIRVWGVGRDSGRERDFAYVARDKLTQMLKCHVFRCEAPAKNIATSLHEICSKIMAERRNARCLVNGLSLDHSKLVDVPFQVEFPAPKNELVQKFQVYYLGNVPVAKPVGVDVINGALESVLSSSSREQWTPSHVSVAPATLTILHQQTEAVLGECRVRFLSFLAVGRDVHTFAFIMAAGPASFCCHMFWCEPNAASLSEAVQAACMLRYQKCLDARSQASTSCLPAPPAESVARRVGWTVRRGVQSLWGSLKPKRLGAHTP
Briefly: co-IP.

These are yes or no findings as the source states them, for the method shown. In cells and extracts the contact can be indirect. Binding calls can cover weak binding; strength is not graded here.

As to “endogenous PP1 (human (endogenous in A549)) (enzyme)”, the binding entry is on record as “binds”.
